Reference: the supplement of paper PMC5949888
Most values lie at the floor of the assay. Slopes are relative: functional sequences can read slightly below zero.

Test system: Saccharomyces cerevisiae PS128 hsf1 delta, HSF1(1-493) fusion
Assay: growth estimate (transactivation domain function in HSF1 fusion, heat-shock survival) (a.u. (slope of normalised read count over time)); higher = stronger growth at 37°C, i.e. more transactivation activity
Conditions: library: random library
Description: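 Random 60-nt DNA library encoding peptides of up to 20 aa, fused to the C-terminus of yeast HSF1 residues 1-493 (C-terminal TAD deleted) and expressed from the native HSF1 promoter on a CEN plasmid in hsf1-deleted S. cerevisiae PS128. Cells were selected at 37°C on -trp 5-FOA plates for 0, 2, 4, 6 and 8 days and amplicons were sequenced. Growth estimate is the slope of a robust linear fit of total-sum-normalised read counts (normalised to the first time point) over time, using at least 2 replicates. Sequences are classed functional (TAD activity) above a threshold of -0.13, set from stop-codon control sequences.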

| Substance | growth estimate |
| --- | --- |
| YSVIWQVFAARVRVYVG | < -0.25 |
| MTDHWGRWPSHCTGTTLRAR | < -0.25 |
| TVIPK | < -0.25 |
| RMNRASCIN | -0.205 |
| YIGLSEAFTLVNNPATELL | < -0.25 |
| VELFPYAAF | < -0.25 |
| CTTETACPGWDATMYSHLPR | < -0.25 |
| SLVLLLLGLLSGYGC | < -0.25 |
| TVKS | < -0.25 |
| VCSSYPGWTLSSERSDDPVV | < -0.25 |
| HVHGKELSV | < -0.25 |
| RMSMLITNGFASCPPL | < -0.25 |
| PMA | < -0.25 |
| FGSGCPQFTSRRYAPPVHGC | < -0.25 |
| CGLGREGF | < -0.25 |
| YALVRGLVTER | < -0.25 |
| RNVTKT | < -0.25 |
| VFGCLELGFISSGRTLTVLH | < -0.25 |
| RGSMEKISWTSD | < -0.25 |
| GSTEWLRGSRTRGSPHSTRG | < -0.25 |
| FLSPPRG | < -0.25 |
| IDNGLWAMRVPDTNPSTWPT | < -0.25 |
| REATIEKGLFVRRCHDVVAM | < -0.25 |
| PFAGCALLPGQCVGAKHTYV | < -0.25 |

| Substance | growth estimate |
| --- | --- |
| FTAVTTKLPRHIRRRTHRSK | < -0.25 |
| VEGLHVDGWEPPCARTTLLA | < -0.25 |
| RCYLLGPVIPCKGSYASSVG | < -0.25 |
| KYGSTRLFAGTI | < -0.25 |
| EPSTCLVPQTPWAP | < -0.25 |
| VITGLG | < -0.25 |
| ISFAGPPLLS | < -0.25 |
| SKIFNCSF | < -0.25 |
| ELCHQADRDGVHGDVISHVC | < -0.25 |
| QSV | < -0.25 |
| FLRLCGKIVHPLWKGSIQGQ | < -0.25 |
| VRQISAVIFLAVGHVVPASL | < -0.25 |
| PGVCVGRAPLTLAKTVAQRR | < -0.25 |
| TAEGDRSDRSYGTGGHNLRG | < -0.25 |
| LLGFCWGGGMPGIPIVRIKG | < -0.25 |
| GESARKLLGRRALYNE | < -0.25 |
| SPGTSNVSVVLPA | < -0.25 |
| ESDR | < -0.25 |
| GTNCYQTVLHWRPGQLQGST | < -0.25 |
| AGSEWVSYINGVWGRMNFKF | < -0.25 |
| AATKIVL | < -0.25 |
| CPHRPWKSERVENMSSFIPK | < -0.25 |
| CYPVLRGAIVGKRVMLCWDS | < -0.25 |
| RARGGRIPLHVRKPVRLSIA | < -0.25 |

| Substance | growth estimate |
| --- | --- |
| SKLTACGHGV | -0.168 |
| GPRSWICRAHGVLPQLNCVP | < -0.25 |
| IFVQAGVWMTLRTRWDKC | < -0.25 |
| EGRGRRSGITRFVTER | < -0.25 |
| RGVELTDLSDIRGRGTTAES | < -0.25 |
| PGWFLHEQAKKQGRSQAPSR | < -0.25 |
| ALGCFCAVGVWHHIT | -0.248 |
| ALEENDRPTLLNRSKT | < -0.25 |
| NVRCTVERIEGLLI | < -0.25 |
| RMRSVADKLHDGRLGAITPR | < -0.25 |
| RSMTAGVARHPKLVGEAGLG | < -0.25 |
| TPTILEKVPIK | < -0.25 |
| AIMARRSR | -0.228 |
| KTRCGKEAHTNRVF | < -0.25 |
| SDGPQARWFGLRKYMVFYF | < -0.25 |
| RRGKQGTFLPKKMAQPARAA | < -0.25 |
| GHRTWQRRSSLRD | < -0.25 |
| TEIGHGRLPADDKAPQACLG | < -0.25 |
| SQDTIHALLRSLECQGSHVN | < -0.25 |
| RPEDICYVSPLLIWIGSQPA | < -0.25 |
| THLII | < -0.25 |
| ASCGEAQNAQKECPGRATNG | < -0.25 |
| GRWIIYCVKFETASVCSYTG | -0.245 |
| GCSGRPDGVDRRVAE | < -0.25 |

Quoted from the listing.
GRWIIYCVKFETASVCSYTG – growth estimate: -0.245
PGWFLHEQAKKQGRSQAPSR – growth estimate: < -0.25
GCSGRPDGVDRRVAE – growth estimate: < -0.25
RGVELTDLSDIRGRGTTAES – growth estimate: < -0.25

(further entries)

| Substance | growth estimate |
| --- | --- |
| DSECEGVCCMAISPGDIVHE | < -0.25 |
| NREHDAVIKRDGGIG | < -0.25 |
| GGLCPDKDRGESYNGCGEYY | < -0.25 |
| KSEAKGTA | < -0.25 |
| SVRRYAHDFL | < -0.25 |
| GIHRRSAQWIFLL | < -0.25 |
| AYFLWGGRNG | < -0.25 |
| RGFNRGRGRAPVKSSSYLGW | < -0.25 |
| ARPALLLRAPLSAGSLQN | < -0.25 |
| RTTSRSLRRRGPPIQREPTQ | -0.235 |
| QAWAGAEQGC | < -0.25 |
| VSGAVPR | -0.235 |
| TVNNLCLLPVRGT | < -0.25 |
| LVLPSRHRGEIRRSLIMVLI | < -0.25 |
| SVHPHRCAKRCITRESHPCR | < -0.25 |
| GCLSDKGTRDTKGVQSLSCA | < -0.25 |
| HSARGIASGPMVLRITTHDQ | < -0.25 |
| YGHE | < -0.25 |
| QFPDKKVTAGTHLVIPQPGG | < -0.25 |
| QYRWGVVRVCLEHLVH | < -0.25 |
| HKNGLVTDQLQPA | < -0.25 |
| GGKEGLLHISVGLLKDMSVR | < -0.25 |
